Test results reported in patent US20100256145A1, “USE OF KCNQ POTASSIUM CHANNEL OPENERS FOR REDUCING SYMPTOMS OF OR TREATING DISORDERS OR CONDITIONS WHEREIN THE DOPAMINERGIC SYSTEM IS DISRUPTED” (H. LUNDBECK A/S, priority 2007, published 2010).
“Also recorded” adds a separate entry of the source. At least one compound was matched to its structure with a doubt left.

Test system: immobility in the mouse forced swim test
Assay: Mouse forced swim test
Conditions: in vivo
Description: Subjects. Male NMRI mice (Charles River) weighing 23-25 g are used. […] 8 mice are used pr experimental group.
Experimental procedure. The mice are placed in 2000 ml beaker containing 1200 ml of tempered water (25° C.) and left to swim for 6 min. The performance of the mice is videorecorded, digitalized and analysed by means of a digital analysis system (Bioobserve). The time spent immobile for the last 3 min. of the test session is quantified for each mouse.
Analyses. […] A post-hoc test (Student-Newman-Keuls) is employed when appropriate. P-levels <0.05 were considered significant.

For `Cc1cc2c(s1)Nc1ccccc1N=C2N1CCN(C)CC1` [Olanzapine, reference compound], the “Effect on immobility in the forced swim test (in words)” value was “only a weak effect; also recorded: does not significantly reduce immobility”.
